Structures can show the parent of a compound that is named as a salt. The campaign covered roughly 5,300 compounds. About 130 (2.5%) showed an effect of 50% or more. The list shows a part of the results. Peptide text beside a SMILES is read from it.
The compounds below were run on M. mycetomatis strain mm55. Details: primary screen, metabolic activity vs growth control; 96 h, 2 µM; inhibitor.
For `CC1(C)S[C@@H]2[C@H](N)C(=O)N2[C@H]1C(=O)O` [ONC0005344, 6aminopenicillanicacid], the “% viability” value was 129.7%.
For `CC(C)=CCOc1ccc(/C=C/C(=O)c2ccc(OCC=C(C)C)cc2OCC(=O)O)cc1` [ONC0005300, sofalcone], the “% viability” value was 120.9%.
In the case of `C[C@@H]1CN(CCCn2c3ccccc3c3ccccc32)C[C@H](C)N1` [ONC0001422, rimcazole], the “% viability” value was 54.11%.
`Oc1ccc(C2CNCCc3c2cc(O)c(O)c3Cl)cc1` (stereo not drawn) [ONC0003932, fenoldopam mesylate] was tested, and the “% viability” value was 82.27%.
`CC(C(=O)O)c1cccc(Oc2ccccc2)c1` (stereo not drawn) [ONC0000663, fenoprofen] was tested, and the “% viability” value was 128.7%.
`N#C/C(=C\c1ccc(O)c(O)c1)C(=O)Nc1ccccc1` [ONC0000100, tyrphostinag494] was tested, and the “% viability” value was 92.12%.
`CC(C)(C)CC1NC(C(=O)NC2CCC(O)CC2)C(c2cccc(Cl)c2F)C12C(=O)Nc1cc(Cl)ccc12` (stereo not drawn) [ONC0004366, mi773 sar405838] was tested, and the “% viability” value was 131.2%.
`CN1Cc2c(C(=O)OC(C)(C)C)ncn2-c2ccsc2C1=O` [ONC0000228, ro194605] was tested, and the “% viability” value was 69.22%.
For `CCCc1ncc(C[n+]2ccccc2C)c(N)n1` [ONC0003221, amprolium], the “% viability” value was 103.9%.
`O=C1NC(=O)/C(=C/c2ccc3nccc(-c4ccncc4)c3c2)S1` [ONC0004984, gsk1059615] was tested, and the “% viability” value was 106.4%.
In the case of `CC(O)c1cc(C(=O)N[C@@H](C)Cn2ccc(-c3ccc(C#N)c(Cl)c3)n2)[nH]n1` (stereo partly drawn) [ONC0005059, odm201], the “% viability” value was 86.36%.
For `O=C1NC(=O)C(c2ccccc2[N+](=O)[O-])=C1Nc1ccc(O)c(Cl)c1` [ONC0001875, sb415286], the “% viability” value was 59.4%.
For `CO/N=C(\C(=O)N[C@@H]1C(=O)N2C(C(=O)O)=CCS[C@H]12)c1csc(N)n1` [ONC0001333, ceftizoxime sodium], the “% viability” value was 83.5%.
`CNc1cc2c(Nc3cccc(Br)c3)ncnc2cn1` [ONC0003138, pd158780] was tested, and the “% viability” value was 68.72%.
In the case of `CCCCCCCCCCCCCCCCCCOC[C@H](COP(=O)(O)OCC[N+](C)(C)C)OC` [ONC0005596, 1ooctadecyl2omethylsnglycero3phosphorylcholine], the “% viability” value was 69.87%.
For `CC(Oc1ccc(O)cc1)(P(=O)(O)O)P(=O)(O)O` [ONC0003523, l690330], the “% viability” value was 126.5%.
For `CO[C@H]1/C=C/O[C@@]2(C)Oc3c(C)c(O)c4c(O)c(c(/C=N/N5CCN(C)CC5)c(O)c4c3C2=O)NC(=O)/C(C)=C\C=C\[C@H](C)[C@H](O)[C@@H](C)[C@@H](O)[C@@H](C)[C@H](OC(C)=O)[C@@H]1C` [ONC0003357, rifampin], the “% viability” value was 107.5%.
`O=C(NCc1ccc(OC(F)(F)F)cc1)C1c2ccccc2C(=O)N1C1CCOCC1` (stereo not drawn) [ONC0000046, nav26] was tested, and the “% viability” value was 135.4%.
`C/C(=C\c1csc(C)n1)[C@H]1C[C@@H]2O[C@]2(C)CCC[C@H](C)[C@H](O)[C@@H](C)C(=O)C(C)(C)[C@H](O)CC(=O)O1` [ONC0004615, patupilone epo906 epothilone b] was tested, and the “% viability” value was 75.3%.
For `Cc1c(Cl)cccc1Nc1ccccc1C(=O)O` [ONC0000617, tolfenamic acid], the “% viability” value was 109.8%.
`CC(C)C[C@@H](N)C(=O)N[C@H]1C(=O)N[C@@H](CC(N)=O)C(=O)N[C@H]2C(=O)N[C@H]3C(=O)N[C@H](C(=O)N[C@H](C(=O)O)c4cc(O)cc(O)c4-c4cc3ccc4O)[C@H](O)c3ccc(c(Cl)c3)Oc3cc2cc(c3O[C@@H]2O[C@H](CO)[C@@H](O)[C@H](O)[C@H]2O[C@H]2C[C@](C)(N)[C@H](O)[C@H](C)O2)Oc2ccc(cc2Cl)[C@H]1O` [ONC0002123, norvancomycin hydrochloride] was tested, and the “% viability” value was 86.02%.
With `C[C@@H]1CC[C@H]2C(C)(C)[C@H]3C[C@@]12CC[C@@]3(C)O` [ONC0005418, cedrol] the “% viability” value was 83.67%.
In the case of `O=C(CCCCCCC(=O)Nc1cccnc1)NO` [ONC0003837, pyroxamide], the “% viability” value was 69.09%.
In the case of `O=C(O)c1ccccc1-c1c2cc(I)c(=O)c(I)c-2oc2c(I)c(O)c(I)cc12` [ONC0004049, erythrosine sodium], the “% viability” value was 105.2%.
For `CCc1ccc(CCOc2ccc(CC3SC(=O)NC3=O)cc2)nc1` (stereo not drawn) [ONC0004237, pioglitazone hydrochloride], the “% viability” value was 114.2%.
With `C=Cc1c(C)c2cc3nc(c(CC(=O)O)c4[nH]c(cc5nc(cc1[nH]2)C(C)=C5CC)c(C)c4C(=O)O)C(CCC(=O)O)C3C` (stereo not drawn) [ONC0000409, chlorophyllin chlorin e6] the “% viability” value was 49.9%.
`CC(C)(C)c1ccc(/C=C/C(=O)Nc2ccc3c(c2)OCCO3)cc1` [ONC0001384, amg9810] was tested, and the “% viability” value was 126.8%.
In the case of `CC(C)Nc1cc(-c2c[nH]c(C(=O)N[C@H](CO)c3cccc(Cl)c3)c2)c(Cl)cn1` [ONC0001826, ulixertinib], the “% viability” value was 83.56%.
For `Cc1ccc(N(CC2=NCCN2)c2cccc(O)c2)cc1` [ONC0000668, phentolamine hydrochloride], the “% viability” value was 93.19%.
With `CN1[C@@H]2C[C@@H](O)C[C@H]1[C@@H]1O[C@@H]12` [ONC0002813, scopine] the “% viability” value was 95.17%.
In the case of `C[C@H](N)C(=O)N[C@@H](CCC(N)=O)C(=O)O` [ONC0002785, lalaninelglutamine] (H-Ala-Gln-OH), the “% viability” value was 109.9%.
In the case of `Cc1[nH]c2ccc(Cl)cc2c1C1=CCNCC1` [ONC0001351, emd386088], the “% viability” value was 76.74%.
In the case of `O=C(O)CCc1nc(-c2ccccc2)c(-c2ccccc2)o1` [ONC0003879, oxaprozin], the “% viability” value was 79.71%.
`Cc1ncc([N+](=O)[O-])n1CC(O)CN1CCOCC1` (stereo not drawn) [ONC0001844, morinidazole] was tested, and the “% viability” value was 126.6%.
For `Cc1cc(SCc2sc(-c3ccc(C(F)(F)F)c(F)c3)nc2C)ccc1OCC(=O)O` [ONC0001755, gw0742], the “% viability” value was 61.33%.
In the case of `Clc1ccc2c(c1)C(N1CCNCC1)=Nc1ccccc1O2` [ONC0005509, amoxapine], the “% viability” value was 96.28%.

Source: PMC12670160, “A drug-repurposing screen of FDA- and EMA-approved drugs identifies two NF-κB inhibitors active against eumycetoma” (Journal of Antimicrobial Chemotherapy, 2025)
